Binding data for two molecules are collected here from paper PMC9223522.

Assay [1] has as its target Myc-PPARγ (peroxisome proliferator-activated receptor gamma). The assay can be described thus: co-IP; two tagged plasmids co-transfected into HEK293T with PEI; lysed after 30 h in cold NP-40 lysis buffer; IP with anti-Myc antibody (Figure 5a) or M2 anti-Flag beads (Figure 5b), immunoblot.
The target in another assay is HA-SIRT1 (Sirtuin 1). Nature of the assay: co-IP; constant pCMV-HA-SIRT1 and pCMV-Myc-PPARγ with a gradient amount of pCMV-Flag-DEPP co-transfected into HEK293T; lysed after 30 h in cold NP-40 lysis buffer; IP with anti-HA antibody, immunoblot. In general terms: In western blotting, separated proteins are transferred to a membrane and probed.

Results are given in words; binding and its absence hold for the method and conditions named. In cells and extracts the contact can be indirect. Binding can be weak; no strength is given. Tags and fused reporters may be left off the sequences shown.

B1: HA-DEPP (decidual protein induced by progesterone) (protein, UniProt Q8K2F3 1-205)
chain: MRSRLLLPVPHLPTIREMSEELSHGAAGQEPPASPSLDDYVRCICQLAQPTSVLDKVTAQSRPNRPSRPAWTREKRRQAESPGDSSLCVSSLQPTLPSPGTDNPLDWLFGKSQGEQADGRGRPNRTGSSDPWDVPRQMGKDTGRLCEARVPEHSLGRKPGPRHQTSDLKSWTSRKSCRALASVSSSRPSSILGTLYLHLPVIHEL
On to B1, for which, in assay [1], the binding entry is listed as “binds”.

B2: Flag-DEPP (protein, UniProt Q8K2F3 1-205)
chain: MRSRLLLPVPHLPTIREMSEELSHGAAGQEPPASPSLDDYVRCICQLAQPTSVLDKVTAQSRPNRPSRPAWTREKRRQAESPGDSSLCVSSLQPTLPSPGTDNPLDWLFGKSQGEQADGRGRPNRTGSSDPWDVPRQMGKDTGRLCEARVPEHSLGRKPGPRHQTSDLKSWTSRKSCRALASVSSSRPSSILGTLYLHLPVIHEL
Turning to B2, in the assay with HA-SIRT1 (Sirtuin 1), the binding result is given as “binds”.
